At least one compound was matched to its structure with a doubt left.
Key:
ADH-Re = test: Screening of substrate specificity, ADH-Re; conditions: relative to oxaloacetate; 20 mM substrate, […] NADH, pH 9
[1] = target: T1, Polaromonas sp. aspartate dehydrogenase (Polaromonas sp., UniProt Q126F5); test: Regulatory properties of the ADH; conditions: addition of 1 mM
T1 sequence (Q126F5 1-267): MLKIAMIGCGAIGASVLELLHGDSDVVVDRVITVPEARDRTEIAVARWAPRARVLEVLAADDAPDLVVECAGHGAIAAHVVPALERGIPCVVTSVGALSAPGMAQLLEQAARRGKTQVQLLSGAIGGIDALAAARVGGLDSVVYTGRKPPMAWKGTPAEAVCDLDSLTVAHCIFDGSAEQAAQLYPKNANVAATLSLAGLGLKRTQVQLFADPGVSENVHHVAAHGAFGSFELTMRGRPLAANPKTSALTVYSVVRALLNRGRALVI

SMILES | Amination activity, ADH-Re (ADH-Re) | effect on ADH activity in forward and reverse reactions ([1]; 29° C., pH 9.8) | inhibition of the reverse reaction of aspartic acid deamination [1]
CC(=O)C(=O)O [pyruvate] | na (no activity (<0.2%)) | not significantly affected | –
O=C(O)CC(=O)C(=O)O [Oxaloacetate] | 100 ± 3% | – | did not significantly inhibit

Source: patent US9051591B2, “Bacterium of enterobacteriaceae family producing L-aspartic acid or L-aspartic acid-derived metabolites and a method for producing L-aspartic acid or L-aspartic acid-derived metabolites” (AJINOMOTO CO., INC., priority 2010, dated 2015)
